Assay results from patent US20250289873A1.
No constants are given. Whether binding was seen depends on the method and setting. Some binding calls cover weakened binding; strength is not graded here.

The chains behind the UniProt entries cited, without tags or fusion partners. Residues count along the entry.
UniProt Q02985, residues 19-330: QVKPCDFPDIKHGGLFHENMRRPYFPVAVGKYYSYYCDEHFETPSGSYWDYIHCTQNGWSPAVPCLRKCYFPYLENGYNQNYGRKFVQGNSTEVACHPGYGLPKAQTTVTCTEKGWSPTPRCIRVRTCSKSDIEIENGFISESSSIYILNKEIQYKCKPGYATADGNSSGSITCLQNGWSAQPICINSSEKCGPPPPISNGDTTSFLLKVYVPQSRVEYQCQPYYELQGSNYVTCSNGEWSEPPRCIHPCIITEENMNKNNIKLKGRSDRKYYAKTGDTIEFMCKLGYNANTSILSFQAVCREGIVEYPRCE

Legend:
[1] = target: Human CFHL1-Y402H-His (ATX-P-421) (human); experiment: Carterra LSA biosensor, mAb printed on chip, human CFHL1-Y402H-His at 380 nM
[2] = target: human CFHL3-His (ATX-P-58) (human) (UniProt Q02985); experiment: Carterra LSA biosensor, mAb printed on chip, human CFHL3-His at 550 nM

B1: ATX-P-581 (antibody, human IgG1, kappa, N297A, V domains shown)
VH: QVQLQQSGPGLVKPSQTLSLTCAISGDSVSSNNAAWNWIRQSPSRGLEWLGRTYYRSKWYNAYAVSVKSRIIINPDTSRNQFSLQLNSVTPEDTAVYYCAREGGYIYGLDQWGQGTLVTVSS
VL: DIQMTQSPSSVSASVGDRVTITCRASQGVNNWLAWYQQKPGKAPKLLIHAASSLLSGVPSRFSGSGSGTDFTLTITSLQPEDFATYYCQQANSFPITFGQGTRLEIKR
binding [1]: binds
binding [2]: binds
